1 substance from PMC9217950 can be followed below.

Sequences of proteins named here, by UniProt entry; tags and fusion partners are left off.
UniProt Q96J77: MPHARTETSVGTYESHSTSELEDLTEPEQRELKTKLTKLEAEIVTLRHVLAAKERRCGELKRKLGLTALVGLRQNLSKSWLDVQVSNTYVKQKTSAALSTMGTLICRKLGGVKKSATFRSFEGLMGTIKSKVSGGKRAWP
UniProt P25963: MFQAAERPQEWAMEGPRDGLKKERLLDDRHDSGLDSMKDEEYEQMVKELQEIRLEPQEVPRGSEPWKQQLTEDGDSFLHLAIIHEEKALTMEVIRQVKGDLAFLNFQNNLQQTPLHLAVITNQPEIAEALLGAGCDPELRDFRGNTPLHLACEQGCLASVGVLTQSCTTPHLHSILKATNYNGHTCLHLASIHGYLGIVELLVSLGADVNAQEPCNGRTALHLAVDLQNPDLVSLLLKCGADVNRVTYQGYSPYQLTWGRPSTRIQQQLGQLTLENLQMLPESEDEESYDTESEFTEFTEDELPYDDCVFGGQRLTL

Assay [1] addresses FLAG-GST-TPD52L3 (20 K human protein beads array) (human) (UniProt Q96J77). The experiment in a line: proximity labelling; CF-PPiD on the 20 K human protein beads array: 19,712 FG-tagged human proteins as dual spots on 27 1536-well plates; AirID-IκBα translational mixture with biotin and ATP; signals normalised to RelA on each plate; only the target purified.
For assay [2], the target named is T1, FLAG-GST-pyruvate carboxylase (PC) (human) (UniProt P11498).
T1 sequence: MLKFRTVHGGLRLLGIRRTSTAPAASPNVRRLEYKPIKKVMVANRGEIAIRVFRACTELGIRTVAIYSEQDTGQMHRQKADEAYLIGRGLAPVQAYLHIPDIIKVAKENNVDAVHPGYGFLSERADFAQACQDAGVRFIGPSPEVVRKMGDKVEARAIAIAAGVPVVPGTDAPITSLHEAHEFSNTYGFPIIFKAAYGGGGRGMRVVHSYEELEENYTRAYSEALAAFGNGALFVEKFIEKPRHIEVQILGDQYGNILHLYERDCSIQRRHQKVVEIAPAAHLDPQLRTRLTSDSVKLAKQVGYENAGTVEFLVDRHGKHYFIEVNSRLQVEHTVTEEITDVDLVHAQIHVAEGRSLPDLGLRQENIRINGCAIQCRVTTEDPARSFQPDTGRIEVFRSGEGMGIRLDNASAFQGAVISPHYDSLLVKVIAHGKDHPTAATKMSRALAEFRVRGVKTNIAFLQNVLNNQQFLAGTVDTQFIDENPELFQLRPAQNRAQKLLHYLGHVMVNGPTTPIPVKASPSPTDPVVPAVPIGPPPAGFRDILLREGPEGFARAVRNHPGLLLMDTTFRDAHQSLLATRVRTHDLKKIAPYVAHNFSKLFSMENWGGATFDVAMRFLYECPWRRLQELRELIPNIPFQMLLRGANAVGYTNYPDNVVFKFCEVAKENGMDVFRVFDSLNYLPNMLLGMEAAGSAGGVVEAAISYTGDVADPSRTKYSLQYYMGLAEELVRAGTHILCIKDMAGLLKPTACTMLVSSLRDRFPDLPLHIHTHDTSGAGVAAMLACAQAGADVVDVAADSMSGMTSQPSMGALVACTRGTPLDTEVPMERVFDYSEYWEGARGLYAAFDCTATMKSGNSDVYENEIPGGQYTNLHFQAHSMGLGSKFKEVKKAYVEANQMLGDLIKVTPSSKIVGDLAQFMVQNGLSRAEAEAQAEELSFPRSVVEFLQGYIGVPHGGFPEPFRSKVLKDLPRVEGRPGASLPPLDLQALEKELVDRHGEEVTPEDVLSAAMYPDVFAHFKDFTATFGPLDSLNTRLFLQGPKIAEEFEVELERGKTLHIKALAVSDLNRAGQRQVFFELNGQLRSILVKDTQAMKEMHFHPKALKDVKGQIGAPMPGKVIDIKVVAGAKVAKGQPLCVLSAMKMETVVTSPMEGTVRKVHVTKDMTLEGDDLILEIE
The assay is described as above.

No constants are given. Whether binding was seen depends on the method and setting. In cells and extracts the contact can be indirect. A yes stands for co-enrichment or nearness to the bait. Other partners may have been found. For some assays here: No binding means not detected with the bait. For some assays here: Where a sequence is shown, tags or fusion partners need not be part of it.

On to “AirID N-terminally fused to IκBα (from UniProt P25963 1-317)”, for which the figures for the binding entry in assay [1] and in assay [2] were “binds” and “no binding”, respectively.
